Experimental data: PubChem BioAssay AID504804 (Drosophila RNAi Screening Center, 2011)
The deposit covers about 19,000 reagents; shown is an unselected part of those that have a named target and a result. In the full data, 47 (0.25%) are marked active. 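Signals are raw, not normalised; exact z-scores behind calls not deposited; actives needed confirmation, so some wells reaching 2 SD are inactive.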 A plus sign joins genes that one reagent is predicted to hit.

Aim: 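dsRNAs that improve Kc cell survival under doxorubicin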 (primary screen)
Cell system: Drosophila Kc cells
Reagent: long dsRNA against Drosophila genes, 0.5 µg dsRNA per well
Time to read-out: 96 h (48 h knock-down, then 48 h drug)
Conditions: doxorubicin 5 µg/ml for 48 h, added 48 h after dsRNA
Measured: 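Viability measured as cellular ATP by luminescence after 48 h knock-down then 48 h doxorubicin at 5 µg/ml; unnormalised plate counts for each replicate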
Direction: raw ATP luminescence: higher = more viable cells, protection from doxorubicin
Active means: 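Active when both duplicate wells lie at least 2 SD above the plate mean and protection is confirmed by rescreening and independent dsRNAs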

| gene knocked down | DRSC id | SD above plate mean | raw ATP luminescence, replicate 1 | raw ATP luminescence, replicate 2 | call |
| --- | --- | --- | --- | --- | --- |
| CG31862 | DRSC01245 | – | 2.69e5 | 2.30e5 | inactive |
| CG30058 + CG34235 + CG34312 | DRSC05401 | – | 79867 | 1.06e5 | inactive |
| Mlp84B (Muscle LIM protein at 84B) | DRSC12596 | – | 51713 | 54473 | inactive |
| CG14194 | DRSC19549 | – | 3.40e5 | 3.34e5 | inactive |
| Mulk (Multi-substrate lipid kinase) | DRSC02658 | – | 82183 | 60763 | inactive |
| CG9776 | DRSC12127 | – | 21270 | 32283 | inactive |
| Actbeta (Activin-beta) | DRSC17185 | – | 1.65e5 | 1.72e5 | inactive |
| Actbeta (Activin-beta) | DRSC17217 | – | 43770 | 68530 | inactive |
| CG15865 | DRSC19733 | – | 4.07e5 | 3.21e5 | inactive |
| niki (nimA-like kinase) | DRSC14285 | – | 54960 | 55700 | inactive |
| Pex23 (Peroxin 23) | DRSC10323 | – | 47723 | 36540 | inactive |
| Pex23 (Peroxin 23) | DRSC10645 | – | 58273 | 62073 | inactive |
| Cpr30B (Cuticular protein 30B) | DRSC02728 | – | 45830 | 70233 | inactive |
| RpS24 (Ribosomal protein S24) | DRSC04414 | – | 32880 | 26537 | inactive |
| CG14695 | DRSC14918 | – | 56263 | 40387 | inactive |
| Cad96Cb (Cadherin 96Cb) | DRSC14243 | – | 95100 | 82600 | inactive |
| Cad96Cb (Cadherin 96Cb) | DRSC14665 | – | 68210 | 66680 | inactive |
| CG10413 | DRSC02052 | – | 42770 | 53533 | inactive |
| CG32204 | DRSC09574 | – | 41447 | 29273 | inactive |
| CG31038 | DRSC16326 | – | 58960 | 45980 | inactive |
| CG31038 | DRSC16327 | – | 65390 | 34190 | inactive |
| Chsy (Chondroitin sulfate synthase) | DRSC20175 | – | 4.13e5 | 3.07e5 | inactive |
| Chsy (Chondroitin sulfate synthase) | DRSC20176 | – | 4.01e5 | 3.11e5 | inactive |
| CG8100 | DRSC10961 | – | 49950 | 32263 | inactive |
| p53 | DRSC17024 | – | 35997 | 29750 | inactive |
| sgll (sugarlethal) | DRSC15442 | – | 67480 | 74020 | inactive |
| CG34030 | DRSC08866 | – | 2.00e5 | 1.68e5 | inactive |
| grau (grauzone) | DRSC04691 | – | 46663 | 41770 | inactive |
| CG17777 | DRSC18137 | – | 52550 | 94180 | inactive |
| Ac78C (Adenylyl cyclase 78C) | DRSC11467 | – | 71190 | 79723 | inactive |
| Ac78C (Adenylyl cyclase 78C) | DRSC11602 | – | 72407 | 61187 | inactive |
| Ac78C (Adenylyl cyclase 78C) | DRSC11619 | – | 63983 | 59967 | inactive |
| CG14391 | DRSC14850 | – | 52507 | 53737 | inactive |
| SmydA-1 (SET and MYND domain containing, arthropod-specific, member 1) | DRSC07200 | – | 68073 | 48590 | inactive |
| Rpn13R (Regulatory particle non-ATPase 13-related) | DRSC18404 | – | 42710 | 35810 | inactive |
| Tpc1 | DRSC15614 | – | 59493 | 50047 | inactive |
| Tpc1 | DRSC16074 | – | 49243 | 22930 | inactive |
| gce (germ cell-expressed bHLH-PAS) | DRSC19613 | – | 2.64e5 | 2.87e5 | inactive |
| gce (germ cell-expressed bHLH-PAS) | DRSC19974 | – | 2.73e5 | 2.82e5 | inactive |
| CG4563 | DRSC04474 | – | 51053 | 50647 | inactive |
| CG10005 | DRSC14172 | – | 46090 | 48760 | inactive |
| CG13739 | DRSC06410 | – | 18867 | 27623 | inactive |
| CG6683 | DRSC10694 | – | 38593 | 38980 | inactive |
| CG12107 | DRSC06102 | – | 81853 | 68467 | inactive |
| CG14086 | DRSC10090 | – | 74387 | 70293 | inactive |
| CG14929 + CG4970 | DRSC02411 | – | 39820 | 77873 | inactive |
| CG14929 + CG4970 | DRSC02796 | – | 40893 | 75580 | inactive |
| CG31368 | DRSC14949 | – | 49620 | 46170 | inactive |
| CG31368 | DRSC14951 | – | 58017 | 30883 | inactive |
| Sf3a1 (Splicing factor 3a subunit 1) | DRSC15166 | – | 32110 | 39323 | inactive |
| CG30283 | DRSC04071 | – | 57473 | 51263 | inactive |
| CG13920 | DRSC08389 | – | 62493 | 62907 | inactive |
| CG10089 | DRSC09694 | – | 55480 | 56913 | inactive |
| CG10089 | DRSC09695 | – | 73130 | 67563 | inactive |
| santa-maria | DRSC00994 | – | 3.38e5 | 2.62e5 | inactive |
| santa-maria | DRSC02180 | – | 1.17e5 | 65480 | inactive |
| Or85b (Odorant receptor 85b) | DRSC16765 | – | 60650 | 60393 | inactive |
| CG14107 | DRSC10110 | – | 64847 | 74800 | inactive |
| CG33639 | DRSC19966 | – | 3.98e5 | 3.47e5 | inactive |
| Snx1 (Sorting nexin 1) | DRSC00531 | – | 39113 | 43643 | inactive |
| a10 (antennal protein 10) | DRSC11319 | 2 to 3 SD above plate mean | 1.12e5 | 92410 | active |
| cass (cassowary) | DRSC01850 | – | 71203 | 55630 | inactive |
| CG30440 | DRSC04775 | – | 95470 | 1.09e5 | inactive |
| CG30440 | DRSC04845 | – | 47347 | 62977 | inactive |
| CG30440 | DRSC04855 | – | 38660 | 50787 | inactive |
| ClC-a (Chloride channel-a) | DRSC14947 | – | 58317 | 49750 | inactive |
| ClC-a (Chloride channel-a) | DRSC14948 | – | 61543 | 60933 | inactive |
| ClC-a (Chloride channel-a) | DRSC16142 | – | 58093 | 30360 | inactive |
| CG13640 | DRSC14639 | – | 58960 | 62310 | inactive |
| CG16749 | DRSC15146 | – | 43813 | 53400 | inactive |
| Idgf2 (Imaginal disc growth factor 2) | DRSC03350 | – | 87170 | 51940 | inactive |
| Su(H) (Suppressor of Hairless) | DRSC03445 | – | 51140 | 66067 | inactive |
| obst-G (obstructor-G) | DRSC11103 | – | 91710 | 75760 | inactive |
| MFS9 (Major Facilitator Superfamily Transporter 9) | DRSC15560 | – | 50733 | 44400 | inactive |
| gbb (glass bottom boat) | DRSC04687 | – | 58583 | 45290 | inactive |
| Alas (Aminolevulinate synthase) | DRSC04044 | – | 66003 | 73753 | inactive |
| CG13540 | DRSC04182 | – | 34447 | 61833 | inactive |
| glob3 (globin 3) | DRSC12261 | – | 55880 | 51310 | inactive |
| CG14075 | DRSC10080 | – | 58570 | 56523 | inactive |
| CG10132 | DRSC02013 | – | 92293 | 51873 | inactive |
| Vajk4 | DRSC06589 | – | 60430 | 38450 | inactive |
| CG14113 | DRSC10116 | – | 89107 | 72937 | inactive |
| Tps1 (Trehalose-6-phosphate synthase 1) | DRSC00269 | – | 1.25e5 | 76337 | inactive |
| krimp (krimper) | DRSC06578 | – | 70577 | 60407 | inactive |

Reformatted: results already given
gene knocked down	DRSC id	SD above plate mean	raw ATP luminescence, replicate 1	raw ATP luminescence, replicate 2	call
CG34030	DRSC08866		2.00e5	1.68e5	inactive
grau (grauzone)	DRSC04691		46663	41770	inactive
CG17777	DRSC18137		52550	94180	inactive
Ac78C (Adenylyl cyclase 78C)	DRSC11467		71190	79723	inactive
Ac78C (Adenylyl cyclase 78C)	DRSC11602		72407	61187	inactive
Ac78C (Adenylyl cyclase 78C)	DRSC11619		63983	59967	inactive
CG14391	DRSC14850		52507	53737	inactive
SmydA-1 (SET and MYND domain containing, arthropod-specific, member 1)	DRSC07200		68073	48590	inactive
Rpn13R (Regulatory particle non-ATPase 13-related)	DRSC18404		42710	35810	inactive
Tpc1	DRSC15614		59493	50047	inactive
Tpc1	DRSC16074		49243	22930	inactive
gce (germ cell-expressed bHLH-PAS)	DRSC19613		2.64e5	2.87e5	inactive
gce (germ cell-expressed bHLH-PAS)	DRSC19974		2.73e5	2.82e5	inactive
